PubChem BioAssay AID1487 (National Center for Advancing Translational Sciences (NCATS), 2009)
This is one part of the list. Shown are side measurements of this screen, not its main read-out; they come without a call. Most of these compounds were active or inconclusive in the main read-out, so they are no random draw. The note in brackets gives the kind of curve behind each potency; many fits are weak.

Experiment: qHTS Assay for Modulators of Lamin A Splicing
Conditions: HeLa LMNA splicing GFP/RFP minigene ratio, 48 h
Procedure, shortened: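 S3 HeLa cells stably expressing lamin A-EGFP splicing minigene plus DsRed2, 600 cells/well, 48 h compound exposure at 37C. Laser-scanning cytometry; analysed as GFP (500-530 nm)/RFP (575-640 nm) total intensity ratio; 0.5% DMSO vehicle.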

[1] = measured here: GFP splicing reporter channel
[2] = measured here: RFP viability control channel

| SMILES | AC50 [1] | AC50 [2] |
| --- | --- | --- |
| Cc1ccc(Nc2cc(=O)n(C3CCCCC3)c(=O)[nH]2)cc1C | 25.1 µM [falling, partial curve, poor fit] | – |
| Fc1ccccc1N1CCN(c2ncnc3[nH]ncc23)CC1 | – | 35.5 µM [rising, single point] |
| Cc1cc(O)c(NC(=S)NC(=O)c2ccc(-c3ccc(Cl)cc3)o2)cc1C | 35.5 µM [falling, single point] | – |
| O=C(COc1ccc(Cl)cc1Br)N1CCN(c2ccccc2)CC1 | 11.2 µM [rising, partial curve] | 31.6 µM [rising, single point] |
| Cc1cc(C(=O)OCc2nnc(-c3ccccc3)o2)c(C)n1-c1ccccc1 | 4.47 µM [rising, full curve] | 10 µM [rising, partial curve] |
| Cc1c(-c2ccccc2)n[nH]c1C(=O)N=Nc1c(O)[nH]c2ccccc12 | – | 35.5 µM [falling, single point] |
| O=c1c(-c2cc(F)cc(F)c2)nc2cnc(N3CCNCC3)nc2n1-c1ccccc1 | 17.8 µM [falling, single point] | 5.62 µM [falling, partial curve] |
| COc1ccccc1-c1nc(NC2CC2)c2ccccc2n1 | 12.6 µM [falling, single point] | – |
| CSc1cccc(-n2cc(-c3ccc4c(c3)OCO4)[nH]c2=O)c1 | – | 31.6 µM [rising, single point] |
| O=C(CSc1nnc(C2COc3ccccc3O2)o1)N1CCCc2ccccc21 (stereo not drawn) | – | 25.1 µM [rising, single point] |
| CN=c1sc2ccccc2n1CC(O)COc1ccccc1 (stereo not drawn) | – | 17.8 µM [rising, partial curve] |
| CC(C)CN(CC(C)C)C(=O)CC(=O)NC(=O)c1ccc(Cl)cc1 | 35.5 µM [rising, single point] | 31.6 µM [rising, single point] |
| O=C(CN1C(=O)NC(Cc2c[nH]c3ccccc23)C1=O)Nc1cccc(S(=O)(=O)N2CCCCCC2)c1 (stereo not drawn) | – | 20 µM [rising, partial curve] |
| Cn1c(SCC(=O)N2CCCc3ccccc32)ncc(C(=O)Nc2ccc(Cl)cc2)c1=O | 0.0224 µM [falling, full curve, poor fit] | 2.24 µM [falling, partial curve, poor fit] |
| O=S(=O)(Nc1nc2ccccc2nc1Nc1cccc(S(=O)(=O)N2CCCCC2)c1)c1ccccc1 | 5.01 µM [rising, partial curve] | 3.16 µM [rising, full curve] |
| Cc1ncc(CO)c(/C=N/NC(=O)c2ccc(Br)cc2)c1O | – | 11.2 µM [rising, partial curve, poor fit] |
| COc1ccc(S(=O)(=O)N(Cc2ccc(OC)c(OC)c2)Cc2ccco2)cc1 | 15.8 µM [rising, partial curve, poor fit] | 17.8 µM [rising, partial curve] |
| Cc1ccc2nc(N/N=C/c3ccco3)cc(C)c2c1 | – | 31.6 µM [rising, single point] |
| Cc1ccccc1C(=O)c1c[nH]c(C(=O)NCc2cccs2)c1 | 1.26 µM [falling, full curve, poor fit] | – |
| C/C(N)=C(/C#N)C(=O)COC(=O)c1cc(C)n(-c2ccc(F)cc2)c1C | – | 12.6 µM [rising, single point] |
| COCCNC(=S)N/N=C/c1ccc(OCc2ccc(C(=O)OC)cc2)c(OC)c1 | – | 2.51 µM [falling, single point] |
| CSc1nc(-c2ccc(Cl)cc2)c(C#N)c(=O)[nH]1 | – | 0.0251 µM [rising, full curve, poor fit] |
| Cc1ccc(SCCOCCN2CCc3ccccc3C2)cc1 | 17.8 µM [rising, single point] | 17.8 µM [rising, single point] |
| Cc1nc(-c2ccncc2)sc1C(=O)Nc1ccc(Cl)cc1 | 0.0708 µM [rising, partial curve, poor fit] | – |
| CCCCNS(=O)(=O)c1ccc2nc(NC(=O)c3cccnc3)sc2c1 | 0.708 µM [rising, partial curve] | – |
| CCN(CC)c1ccc(NC(=O)c2cnn(CC)c2)cc1 | 3.98 µM [falling, single point] | 3.55 µM [falling, single point] |
| CCOC(=O)c1ccccc1NC(=O)Cn1c(-c2nonc2N)nc2ccccc21 | 2.82 µM [rising, full curve] | 1.78 µM [rising, full curve] |
| CCN1C(=O)c2cccc3c(S(=O)(=O)N(C(=O)c4ccncc4)c4ccc(OC)cc4)ccc1c23 | – | 20 µM [rising, single point] |

Reprinted at random: 2 compounds from above.

| SMILES | AC50 [1] | AC50 [2] |
| --- | --- | --- |
| Cc1ccc(SCCOCCN2CCc3ccccc3C2)cc1 | 17.8 µM [rising, single point] | 17.8 µM [rising, single point] |
| CSc1cccc(-n2cc(-c3ccc4c(c3)OCO4)[nH]c2=O)c1 | – | 31.6 µM [rising, single point] |
